{
  "source": "patent US7662915",
  "about": "(dated 2010)",
  "assay": "general procedure: Fmoc solid-phase peptide synthesis; Link-amide resin; 2-CLTR (2-chlorotrityl resin); Bop/HOBt/DIPEA",
  "conditions": "HPLC (Waters Alliance, Nova-Pak C18, 0.1% TFA water/AcCN gradient); for final HPLC purity: whole synthesis, scale of the general procedure 1.0 mmol",
  "data": [
    {"substance": "1,12-diNsc-GRF(1-29)", "values": [
      {"measurement": "final HPLC purity", "result": 98, "unit": "% up"}
    ]},
    {"substance": "21-Nsc-GRF(1-29)", "values": [
      {"measurement": "final HPLC purity", "result": 98, "unit": "% up"}
    ]},
    {"substance": "Boc-Tyr-Ala-Asp-Ala-Ile-Phe-Thr-Asn-Ser-Tyr^10-Arg-Lys(Boc)-Val-Leu-Gly-Gln-Leu-Ser-Ala-Arg^20-Lys-Leu-Leu-Gln-Asp-Ile-Met-Ser-Arg-NH2 (SEQ ID NO.: 2)", "values": [
      {"measurement": "crude HPLC purity", "setting": "late stage modification step", "result": 92, "unit": "% up"}
    ]},
    {"substance": "Fmoc-Cys^1-Ser-Asn-Leu-Ser-Thr-Cys^7-Val-Leu-Gly^10-Lys(Fmoc)-Leu-Ser-Gln-Glu-Leu-His-Lys-Leu-Gln^20-Thr-Tyr-Pro-Arg-Thr-Asn-Thr-Gly-Ser-Gly^30-Thr-Pro-NH2(SEQ ID NO.: 1)(1,7-disulfide bond)", "values": [
      {"measurement": "final HPLC purity", "result": 98, "unit": "% up"}
    ]},
    {"substance": "Fmoc-Cys^1-Ser-Asn-Leu-Ser-Thr-Cys^7-Val-Leu-Gly^10-Lys-Leu-Ser-Gln-Glu-Leu-His-Lys(Fmoc)-Leu-Gln^20-Thr-Tyr-Pro-Arg-Thr-Asn-Thr-Gly-Ser-Gly^30 -Thr-Pro-NH2 (1,7-disulfide bond)(SEQ ID NO.: 1)", "values": [
      {"measurement": "final HPLC purity", "setting": "run 1", "result": 97, "unit": "% up"},
      {"measurement": "final HPLC purity", "setting": "run 2", "result": 98, "unit": "% up"}
    ]},
    {"substance": "Fmoc-Tyr-Ala-Asp-Ala-Ile-Phe-Thr-Asn-Ser-Tyr^10-Arg-Lys-Val-Leu-Gly-Gln-Leu-Ser-Ala-Arg^20-Lys(Fmoc)-Leu-Leu-Gln-Asp-Ile-Met-Ser-Arg-NH2(SEQ ID NO.: 2)", "values": [
      {"measurement": "final HPLC purity", "result": 98, "unit": "% up"}
    ]},
    {"substance": "H-Cys^1-Ser-Asn-Leu-Ser-Thr-Cys^7-Val-Leu-Gly^10-Lys(Fmoc)-Leu-Ser-Gln -Glu-Leu-His-Lys-Leu-Gln^20-Thr-Tyr-Pro-Arg-Thr-Asn-Thr-Gly-Ser-Gly^30-Thr-Pro-NH2 (1,7-disulfide bond)(SEQ ID NO:1)", "values": [
      {"measurement": "final HPLC purity", "result": 98, "unit": "% up"}
    ]},
    {"substance": "H-Tyr-Ala-Asp-Ala-Ile-Phe-Thr-Asn-Ser-Tyr^10-Arg-Lys(Fmoc)-Val-Leu-Gly-Gln-Leu-Ser-Ala-Arg^20-Lys(Fmoc)-Leu-Leu-Gln-Asp-Ile-Met-Ser-Arg-NH2(SEQ ID NO.: 2)", "values": [
      {"measurement": "final HPLC purity", "result": 96, "unit": "% up"}
    ]}
  ]
}
